# Measured data: PubChem BioAssay AID1259405 (NCATS, 2018)
# Assay: 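Knock-downs that lift recombinant protein yield in hamster ovary cells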 (primary screen)
# Cells: Chinese hamster CHO-K1 ovary cells with stable secreted eGFP expression
# Knock-down reagent: single siRNA against mouse genes, 0.8 pmol siRNA per well (2 µl of 400 nM stock)
# Duration: 3 days
# Read-out: 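Per-well intracellular GFP measured by laser scanning cytometry, plus viability from ATP luminescence, each relative to plate median of non-targeting control wells, in %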
# Direction: GFP, % of control: higher = more GFP per well, higher productivity; viability (ATP), % of control: higher = more viable cells (more ATP)
# Call rule: 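a knock-down is called active if GFP reaches 120% or more of non-targeting control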
# The whole screen tested about 50,000 reagents; below is a random part of them. About 4,000 of them (8%) count as active. 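Mouse siRNA library applied to hamster cells; one well for each siRNA.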 Unmarked entries are inactive. Reagents against one gene are numbered here.
The opening 7 records, ahead of the listing:
gene,reagent,"GFP, % of control","viability (ATP), % of control"
Chst5,1,91.9,75.5
Chst5,2,40.4,71.9
Chst5,3,100,116
Hprt1,1,38.7,87.6
Hprt1,2,96,101
Hprt1,3,84.6,89
Ebag9,1,109,92

The listing, from the start:
gene,reagent,"GFP, % of control","viability (ATP), % of control"
Chst5,1,91.9,75.5
Chst5,2,40.4,71.9
Chst5,3,100,116
Hprt1,1,38.7,87.6
Hprt1,2,96,101
Hprt1,3,84.6,89
Ebag9,1,109,92
Ebag9,2,81.8,86.7
Ebag9,3,54.4,86.9
Caskin1,1,91.2,86.8
Caskin1,2,120 (active),83.1
Smg1,1,133 (active),106
Tomm22,1,51.4,71.1
Tomm22,2,71.1,65
Tomm22,3,54.2,66.1
4732465J04Rik,1,117,98.6
4732465J04Rik,2,64.2,54.8
4732465J04Rik,3,97.3,90.3
Akr1d1,1,118,76.2
Akr1d1,2,112,84.4
Akr1d1,3,69,80.5
Ddit4l,1,104,117
Ddit4l,2,93.9,49.3
Ddit4l,3,113,72.2
Ints3,1,97.1,88
Ints3,2,91,33.2
Ints3,3,90.2,96.1
Capn15,1,95.6,75
Capn15,2,47.1,58
Capn15,3,82.6,67.5
Rigi,1,55,54.9
Rigi,2,79.1,40.2
Rigi,3,149 (active),176
Fam174a,1,43.2,23.7
Fam174a,2,49.8,54.9
Fam174a,3,82.6,82.2
Prdx2,1,85.8,75.4
Prdx2,2,81.3,73
Prdx2,3,109,85.9
Pcgf2,1,34.8,47
Pcgf2,2,120,81
Pcgf2,3,86.3,87
Or5ac16,1,77.1,71.3
Or5ac16,2,54,72
Or5ac16,3,70.8,107
Dzip1,1,102,72.4
Dzip1,2,76.5,76.5
Dzip1,3,64.8,65.5
Arpc5,1,49.7,46.2
Arpc5,2,73.2,61.8
Arpc5,3,48.8,58.9
Fem1al,1,55.7,56.1
Fem1al,2,62.8,41.1
Fem1al,3,63.1,64.8
Pitrm1,1,95.4,89.5
Pitrm1,2,50.2,44.4
Pitrm1,3,65.8,49
Pde4c,1,89.9,74.7
Pde4c,2,67.9,38
Pde4c,3,41,60
Nlrp1a,1,40.8,60.8
Nlrp1a,2,86.9,87.2
Nlrp1a,3,108,57.5
Ric3,1,92.2,116
Ric3,2,47.3,64
Ric3,3,85.2,66
Idh1,1,147 (active),110
Idh1,2,50.1,67.3
Idh1,3,89.4,89.5
Tmem39a,1,82.8,38.9
Tmem39a,2,90,51.8
Tmem39a,3,135 (active),86
Dhx38,1,50.8,49.8
Dhx38,2,43.6,61.5
Dhx38,3,47.4,50.6
Ifna12,1,92.6,64.9
Ifna12,2,29.1,21.2
Ifna12,3,63.7,48.4
F630111L10Rik,1,71.1,81.2
F630111L10Rik,2,59,63.9
F630111L10Rik,3,146 (active),61.2
Rnf146,1,164 (active),95.1
Rnf146,2,53.5,53.5
Rnf146,3,79.7,83.9
